Laboratory results as given in publication PMC4330364.
These are yes or no findings as the source states them, for the method shown. In cells and extracts the contact can be indirect. These calls come from enrichment with a bait or labelling near it, and not all partners need be listed. For some of these results: A no says only that the protein was not detected with the bait.

Sequences of proteins named here, by UniProt entry; tags and fusion partners are left off.
UniProt Q9HAV4: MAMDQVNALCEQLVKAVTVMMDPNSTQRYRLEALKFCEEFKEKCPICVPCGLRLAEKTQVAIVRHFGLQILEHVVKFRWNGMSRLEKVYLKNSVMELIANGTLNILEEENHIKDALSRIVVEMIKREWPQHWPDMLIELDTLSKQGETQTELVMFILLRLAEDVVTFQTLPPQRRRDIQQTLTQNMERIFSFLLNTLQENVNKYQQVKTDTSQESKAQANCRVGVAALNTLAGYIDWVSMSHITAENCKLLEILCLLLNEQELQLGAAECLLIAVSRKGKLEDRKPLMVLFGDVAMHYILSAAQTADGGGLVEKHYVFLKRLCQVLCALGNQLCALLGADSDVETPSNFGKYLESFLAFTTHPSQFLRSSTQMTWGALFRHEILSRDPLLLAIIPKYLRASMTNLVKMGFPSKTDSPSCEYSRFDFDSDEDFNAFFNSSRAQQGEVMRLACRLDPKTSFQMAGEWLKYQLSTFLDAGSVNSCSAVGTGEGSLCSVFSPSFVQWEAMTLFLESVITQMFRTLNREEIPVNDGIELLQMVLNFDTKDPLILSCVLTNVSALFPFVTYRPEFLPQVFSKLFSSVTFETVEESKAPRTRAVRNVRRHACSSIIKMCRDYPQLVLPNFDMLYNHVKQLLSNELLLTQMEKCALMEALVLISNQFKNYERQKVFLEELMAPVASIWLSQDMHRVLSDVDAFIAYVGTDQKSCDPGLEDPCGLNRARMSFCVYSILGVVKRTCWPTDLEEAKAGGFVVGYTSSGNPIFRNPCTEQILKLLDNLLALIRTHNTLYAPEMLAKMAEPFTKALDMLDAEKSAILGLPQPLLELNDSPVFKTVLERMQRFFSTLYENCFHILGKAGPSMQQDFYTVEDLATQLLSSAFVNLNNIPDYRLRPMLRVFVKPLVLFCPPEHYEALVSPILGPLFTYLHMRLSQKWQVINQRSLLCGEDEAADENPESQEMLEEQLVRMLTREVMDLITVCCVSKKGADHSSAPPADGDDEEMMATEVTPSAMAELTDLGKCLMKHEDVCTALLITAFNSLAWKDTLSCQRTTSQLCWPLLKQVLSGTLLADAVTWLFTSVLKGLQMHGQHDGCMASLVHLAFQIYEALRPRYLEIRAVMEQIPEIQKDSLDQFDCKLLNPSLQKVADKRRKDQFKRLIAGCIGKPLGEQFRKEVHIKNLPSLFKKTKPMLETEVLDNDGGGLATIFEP
UniProt O14980: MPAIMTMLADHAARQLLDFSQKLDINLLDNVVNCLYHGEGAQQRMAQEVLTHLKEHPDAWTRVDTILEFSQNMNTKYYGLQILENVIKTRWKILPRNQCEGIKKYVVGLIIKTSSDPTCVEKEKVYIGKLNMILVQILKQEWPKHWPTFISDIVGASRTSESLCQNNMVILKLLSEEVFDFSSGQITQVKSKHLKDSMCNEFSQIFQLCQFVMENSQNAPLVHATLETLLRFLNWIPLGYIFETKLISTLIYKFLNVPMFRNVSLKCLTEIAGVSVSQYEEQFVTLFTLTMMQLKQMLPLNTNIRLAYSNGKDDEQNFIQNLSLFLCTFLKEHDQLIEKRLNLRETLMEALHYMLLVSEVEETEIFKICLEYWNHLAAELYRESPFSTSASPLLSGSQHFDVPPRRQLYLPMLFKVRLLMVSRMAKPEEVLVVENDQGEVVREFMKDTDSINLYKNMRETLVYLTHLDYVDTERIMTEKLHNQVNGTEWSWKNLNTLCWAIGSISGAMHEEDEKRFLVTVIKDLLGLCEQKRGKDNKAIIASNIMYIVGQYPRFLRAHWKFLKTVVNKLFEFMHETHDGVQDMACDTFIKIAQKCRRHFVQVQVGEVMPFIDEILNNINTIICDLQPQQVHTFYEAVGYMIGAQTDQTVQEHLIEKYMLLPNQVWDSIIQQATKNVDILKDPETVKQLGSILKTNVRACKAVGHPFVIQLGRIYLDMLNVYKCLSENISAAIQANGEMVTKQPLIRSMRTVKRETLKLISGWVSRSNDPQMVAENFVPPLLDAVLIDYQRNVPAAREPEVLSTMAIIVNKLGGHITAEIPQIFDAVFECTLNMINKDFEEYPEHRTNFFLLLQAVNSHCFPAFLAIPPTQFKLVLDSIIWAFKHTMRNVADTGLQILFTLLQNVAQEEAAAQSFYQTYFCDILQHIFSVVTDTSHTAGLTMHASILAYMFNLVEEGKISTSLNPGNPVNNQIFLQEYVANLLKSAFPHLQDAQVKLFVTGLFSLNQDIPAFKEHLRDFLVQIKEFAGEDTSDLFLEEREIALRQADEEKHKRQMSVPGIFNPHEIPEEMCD

T1: Regulator of Telomere ELongation helicase 1 (RTEL1), isoform 6, stably overexpressed in 293T cells (human), Q9NZ71
T1 chain: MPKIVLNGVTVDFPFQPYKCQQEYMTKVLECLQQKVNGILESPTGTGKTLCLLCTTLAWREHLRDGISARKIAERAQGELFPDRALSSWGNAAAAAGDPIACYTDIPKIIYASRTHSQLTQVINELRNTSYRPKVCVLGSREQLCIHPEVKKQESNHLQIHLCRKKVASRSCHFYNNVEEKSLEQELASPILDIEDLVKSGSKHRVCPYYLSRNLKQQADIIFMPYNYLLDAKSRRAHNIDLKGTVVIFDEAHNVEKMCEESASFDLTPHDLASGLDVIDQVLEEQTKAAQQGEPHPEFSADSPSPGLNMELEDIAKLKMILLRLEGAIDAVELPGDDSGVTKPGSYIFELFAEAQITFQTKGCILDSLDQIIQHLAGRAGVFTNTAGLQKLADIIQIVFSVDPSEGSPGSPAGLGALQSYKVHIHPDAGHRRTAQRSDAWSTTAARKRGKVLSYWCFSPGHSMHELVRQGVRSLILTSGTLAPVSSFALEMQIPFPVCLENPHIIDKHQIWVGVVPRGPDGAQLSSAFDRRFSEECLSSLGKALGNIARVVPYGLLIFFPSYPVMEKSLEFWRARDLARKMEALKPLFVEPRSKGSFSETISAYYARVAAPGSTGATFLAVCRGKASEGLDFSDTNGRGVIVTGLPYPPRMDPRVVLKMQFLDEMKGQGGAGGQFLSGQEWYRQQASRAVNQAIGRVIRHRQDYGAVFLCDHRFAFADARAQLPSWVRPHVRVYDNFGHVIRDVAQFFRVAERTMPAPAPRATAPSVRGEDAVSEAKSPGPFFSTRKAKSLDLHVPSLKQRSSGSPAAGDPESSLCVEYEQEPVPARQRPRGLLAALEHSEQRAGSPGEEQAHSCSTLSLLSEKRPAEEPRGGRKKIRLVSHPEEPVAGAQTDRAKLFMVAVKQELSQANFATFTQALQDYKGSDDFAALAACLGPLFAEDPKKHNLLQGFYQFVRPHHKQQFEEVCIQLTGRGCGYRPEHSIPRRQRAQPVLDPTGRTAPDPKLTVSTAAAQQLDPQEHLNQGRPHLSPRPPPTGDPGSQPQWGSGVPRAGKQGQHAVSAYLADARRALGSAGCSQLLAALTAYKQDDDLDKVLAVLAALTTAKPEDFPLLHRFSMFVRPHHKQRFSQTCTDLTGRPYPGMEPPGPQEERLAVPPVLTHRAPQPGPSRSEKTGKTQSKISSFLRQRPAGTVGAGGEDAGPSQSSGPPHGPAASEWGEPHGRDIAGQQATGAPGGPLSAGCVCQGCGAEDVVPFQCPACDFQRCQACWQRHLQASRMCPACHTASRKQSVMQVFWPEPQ


Key:
[1] = biological target: Regulator of Telomere ELongation helicase 1 (RTEL1), isoform 6, stably overexpressed in 293T cells (human) (UniProt Q9NZ71); assay: affinity purification with mass spectrometry; rabbit anti-RTEL1 antibody covalently attached to protein A agarose beads, soluble lysate of 293T stably overexpressing hRTEL1; 50 mM tris pH 7.5, 300 mM NaCl, 10% glycerol, 0.1% NP40; overnight at 4°C; control: rabbit preimmune antibody; LC-MS/MS
[2] = biological target: T1, Regulator of Telomere ELongation …; assay: as above; details: remark: other sources report otherwise

Row | Molecule | binding [1] | binding [2]
1 | XPO5 (from UniProt Q9HAV4 1-1204) | binds | 
2 | TRF2, Q15554 1-542 (protein) MAAGAGTAGPASGPGVVRDPAASQPRKRPGREGGEGARRSDTMAGGGGSSDGSGRAAGRRASRSSGRARRGRHEPGLGGPAERGAGEARLEEAVNRWVLKFYFHEALRAFRGSRYGDFRQIRDIMQALLVRPLGKEHTVSRLLRVMQCLSRIEEGENLDCSFDMEAELTPLESAINVLEMIKTEFTLTEAVVESSRKLVKEAAVIICIKNKEFEKASKILKKHMSKDPTTQKLRNDLLNIIREKNLAHPVIQNFSYETFQQKMLRFLESHLDDAEPYLLTMAKKALKSESAASSTGKEDKQPAPGPVEKPPREPARQLRNPPTTIGMMTLKAAFKTLSGAQDSEAAFAKLDQKDLVLPTQALPASPALKNKRPRKDENESSAPADGEGGSELQPKNKRMTISRLVLEEDSQSTEPSAGLNSSQEAASAPPSKPTVLNQPLPGEKNPKVPKGKWNSSNGVEEKETWVEEDELFQVQAAPDEDSTTNITKKQKWTVEESEWVKAGVQKYGEGNWAAISKNYPFVNRTAVMIKDRWRTMKRLGMN |  | no binding

Results, then the molecule that gave them:

Row | binding [1] | binding [2] | Molecule
3 | binds |  | XPO1 (CRM1) (from UniProt O14980 1-1071)
4 | binds |  | XPOT (protein, UniProt O43592 1-962) MDEQALLGLNPNADSDFRQRALAYFEQLKISPDAWQVCAEALAQRTYSDDHVKFFCFQVLEHQVKYKYSELTTVQQQLIRETLISWLQAQMLNPQPEKTFIRNKAAQVFALLFVTEYLTKWPKFFFDILSVVDLNPRGVDLYLRILMAIDSELVDRDVVHTSEEARRNTLIKDTMREQCIPNLVESWYQILQNYQFTNSEVTCQCLEVVGAYVSWIDLSLIANDRFINMLLGHMSIEVLREEACDCLFEVVNKGMDPVDKMKLVESLCQVLQSAGFFSIDQEEDVDFLARFSKLVNGMGQSLIVSWSKLIKNGDIKNAQEALQAIETKVALMLQLLIHEDDDISSNIIGFCYDYLHILKQLTVLSDQQKANVEAIMLAVMKKLTYDEEYNFENEGEDEAMFVEYRKQLKLLLDRLAQVSPELLLASVRRVFSSTLQNWQTTRFMEVEVAIRLLYMLAEALPVSHGAHFSGDVSKASALQDMMRTLVTSGVSSYQHTSVTLEFFETVVRYEKFFTVEPQHIPCVLMAFLDHRGLRHSSAKVRSRTAYLFSRFVKSLNKQMNPFIEDILNRIQDLLELSPPENGHQSLLSSDDQLFIYETAGVLIVNSEYPAERKQALMRNLLTPLMEKFKILLEKLMLAQDEERQASLADCLNHAVGFASRTSKAFSNKQTVKQCGCSEVYLDCLQTFLPALSCPLQKDILRSGVRTFLHRMIICLEEEVLPFIPSASEHMLKDCEAKDLQEFIPLINQITAKFKIQVSPFLQQMFMPLLHAIFEVLLRPAEENDQSAALEKQMLRRSYFAFLQTVTGSGMSEVIANQGAENVERVLVTVIQGAVEYPDPIAQKTCFIILSKLVELWGGKDGPVGFADFVYKHIVPACFLAPLKQTFDLADAQTVLALSECAVTLKTIHLKRGPECVQYLQQEYLPSLQVAPEIIQEFCQALQQPDAKVFKNYLKVFFQRAKP
